In PubChem BioAssay AID493014 (National Center for Advancing Translational Sciences (NCATS), 2011) one finds AC50 data, which are given here for 62 compounds.

This assay in a line: qHTS Assay to Find Inhibitors of Chronic Active B-Cell Receptor Signaling. Particulars: ABC-DLBCL IkBa-CBG/CBR reporter, luminescence ratio (green luciferase fused to IkBa over red control in TMD8 lymphoma cells), 4 h. The method, boiled down:
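Compounds up to 46 uM were incubated four hours with TMD8 cells whose green CBG68 luciferase is fused to IkappaBalpha; red CBR luminescence normalised the signal, and concentration-effect curves were fitted to fusion, red and ratio data.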

Where [1] appears, read: measured here: CBR red luminescence, cell number.
[2] abbreviates: measured here: IkBa-CBG green luminescence.

This is one part of the list. Further columns of the screen follow, without active or inactive calls. The list favours compounds with an active or inconclusive main result. Words in brackets tell the shape of the fitted curve; partial curves, single points and poor fits give uncertain potencies.

With `CC(C)(C)c1ccc(C(=O)O)c(C(=O)c2ccc(C(=O)O)cc2)c1`, the concentration at half-maximal activity (AC50) under setting [1] was 3.16 µM [rising, single point]. Take `COC(=O)c1ccc(N2CCOCC2)c(NC(=O)Nc2cccc(OC)c2)c1`: the AC50 under setting [1] was 23.1 µM [falling, single point]. With `COc1ccc(NC(=O)CN(C)S(=O)(=O)c2ccc3c(c2)OCCO3)c2ncccc12`, under setting [1], the AC50 is 31.6 µM [rising, single point]. `COc1ccccc1C(=O)Nc1sc(C(=O)N2CCCC2)c(C)c1C#N`: the half-maximal activity concentration (AC50) under setting [1] was 7.08 µM [falling, partial curve, poor fit].

On to `C=C(C)CNC(=S)N/N=C/c1c(F)cccc1F`, for which the half-maximal activity concentration (AC50) is 25.1 µM [falling, single point] under setting [1] and 25.1 µM [falling, single point] under setting [2]. In the case of `COc1ccc2c(c1)C(C1=C(O)CC(C)(C)CC1=O)C1=C(CC(C)(C)CC1=O)O2` (configuration not stated), the half-maximal activity concentration (AC50) under setting [1] was 9.2 µM [rising, single point]. For the compound `CCc1ccccc1N(CC)C(=O)CCc1nc(-c2ccc(C)cc2)no1`, the half-maximal activity concentration (AC50) under setting [1] is 12.6 µM [falling, partial curve, poor fit]. On to `Cn1c(=O)c2cc(S(=O)(=O)NC(C(=O)Nc3cccnc3)c3ccccc3)ccc2n(C)c1=O` (configuration not stated), for which the half-maximal activity concentration (AC50) under setting [1] was 2.91 µM [falling, single point]. Still for that read-out and setting: the figure for `CSc1ccc(-c2nc(O)c3cnccn23)cc1` is 0.562 µM [rising, full curve, poor fit]; for `Cc1ccc(C(=O)C2CCN(CC(=O)NC3CCCCC3)CC2)cc1` it is 0.708 µM [rising, full curve, poor fit].

Consider `CCN(CC)C(=O)[C@H]1C[C@H](CC(=O)NCCc2ccccn2)C(=O)N2CCc3c([nH]c4ccc(Cl)cc34)[C@]12C`, for which, under setting [1], the concentration at half-maximal activity (AC50) was 20.6 µM [rising, single point]. Regarding `O=C(O)c1ccc(Nc2nc3ccccc3nc2NS(=O)(=O)c2cccs2)cc1`, the AC50 under setting [1] is 0.891 µM [falling, full curve]. As for `COc1ccc(O)c(C(=O)c2cnn(-c3ccccc3)c2)c1`, the AC50 under setting [1] was 4.47 µM [falling, partial curve]. Take `CCOc1ccc(NC(=O)CN2CCN(CC(=O)Nc3cc(OC)cc(OC)c3)CC2)cc1`: the AC50 runs as follows: under setting [1], 13 µM [rising, partial curve, poor fit]; under setting [2], 16.4 µM [falling, single point]. On to `NC(=O)c1ccc(NC(=O)c2cnc3ccccc3n2)cc1`, for which the AC50 under setting [1] was 6.31 µM [rising, single point]. Take `Cc1ccc(Cl)c2sc(NC(=O)C3CC3)nc12`: the half-maximal activity concentration (AC50) under setting [1] is 35.5 µM [falling, partial curve, poor fit]. The same measure, in the same setting: for `Fc1cccc(Nc2ncnc3sc4c(c23)CCC4)c1` the value was 1.64 µM [rising, full curve]. As for `CCCCCCCc1nc2nc(C)c(Br)c(=O)n2[nH]1`, the concentration at half-maximal activity (AC50) under setting [1] is 3.16 µM [falling, full curve]. As to `NC(=S)NN=C1c2ccccc2-c2ccccc21`, the AC50 by setting is: under setting [1], 20 µM [falling, single point]; under setting [2], 11.2 µM [falling, partial curve].

`COc1ccc(/C=C2\N=C3CCCN3C2=O)cc1`: under setting [1], the concentration at half-maximal activity (AC50) is 3.55 µM [rising, full curve, poor fit]. Take `CCOC(=O)C(C)Sc1nnc(NC(=O)c2ccc3c(c2)OCO3)s1` (configuration not stated): under setting [1], the concentration at half-maximal activity (AC50) is 35.5 µM [falling, single point]. Take `Cc1cccnc1NC(=S)Nc1ccc(Cl)c(Cl)c1`: the AC50 under setting [1] is 12.6 µM [rising, partial curve]. `COc1ccc2cc(S(=O)(=O)N3CCCCC3)ccc2c1S(=O)(=O)N1CCCCC1`: the AC50 under setting [1] is 6.51 µM [rising, single point]. For the compound `C=CCn1c(COc2cccc3ccc(C)nc23)nnc1SCC(N)=O`, under setting [1], the concentration at half-maximal activity (AC50) is 2.91 µM [falling, full curve, poor fit]. Same read-out and setting: the figure for `Cc1ccc(C)c(NC(=O)c2cc(S(=O)(=O)N3CCCCCC3)ccc2F)c1` is 14.1 µM [rising, partial curve, poor fit].

On to `CC(C)c1[nH]nc2c1C(c1cccnc1)C(C#N)=C(N)O2` (configuration not stated), for which the AC50 under setting [1] is 12.6 µM [falling, partial curve, poor fit]. Still for that read-out and setting: the figure for `O=S(=O)(c1ccc(Cl)cc1Br)N1CCCCC1` is 6.51 µM [rising, single point]; for `C/C(=C\C(=O)O)C12CC3CC(CC(C3)C1)C2` it is 25.9 µM [falling, single point]. On to `Cn1cccc1C(=O)NC(=O)CSc1cccc[n+]1[O-]`, for which the concentration at half-maximal activity (AC50) under setting [2] was 25.1 µM [falling, single point].

Take `Cn1c(=N)n(CC(=O)c2ccc(Cl)c(Cl)c2)c2ccccc21`: the AC50 under setting [1] is 35.5 µM [falling, partial curve, poor fit]. For the compound `CSCCC(NC(=O)c1cccc(S(=O)(=O)N2CCOCC2)c1)C(=O)Nc1ccc(F)cc1` (configuration not stated), under setting [1], the AC50 is 0.366 µM [falling, full curve, poor fit]. For `Cc1cccc(Nc2c([N+](=O)[O-])cc(C(=O)N3CC(=O)Nc4ccccc43)cc2[N+](=O)[O-])c1`, the AC50 under setting [1] was 22.4 µM [falling, partial curve, poor fit]. For `Cc1ccc2nc(Nc3ccccc3)c(/C=N/O)c(=O)n2c1`, the AC50 under setting [1] is 13 µM [rising, partial curve, poor fit]. Turning to `CC1=C(C(=O)OC(C)C)C(c2ccc(F)cc2)NC(=O)N1` (configuration not stated), the AC50 by setting is: under setting [1], 20.6 µM [falling, single point]; under setting [2], 18.4 µM [rising, partial curve, poor fit]. For `Cc1c(C)[n+](=O)c2c(n1[O-])C(Br)CCC2Br` (configuration not stated), the AC50 under setting [1] is 31.6 µM [rising, single point]. Regarding `COc1ccccc1C(=O)COC(=O)Cc1c[nH]c2ccccc12`, the concentration at half-maximal activity (AC50) under setting [1] is 23.1 µM [falling, partial curve, poor fit]. `O=C(C[n+]1cc(-c2ccc(Cl)cc2)n2c1CCC2)Nc1nc(-c2ccccc2)cs1`: under setting [1], the AC50 was 15.8 µM [falling, partial curve, poor fit]. Take `Cc1c(C(=O)NC2CC2)oc2ccccc12`: the half-maximal activity concentration (AC50) under setting [1] is 29.1 µM [rising, single point].

As to `O=C(NCC(=O)N(Cc1cccs1)C(C(=O)NC1CCCCC1)c1cccnc1)c1ccco1` (configuration not stated), the AC50 under setting [1] was 0.82 µM [rising, full curve, poor fit]. `Cc1nnc(NC(=O)C(C)Sc2nnc(-c3ccco3)n2C(C)C)s1` (configuration not stated): the AC50 under setting [1] is 10 µM [falling, partial curve]. `CC(=NCCc1c(C)[nH]c2ccc(OC(F)(F)F)cc12)C1=C(O)CC(c2ccccc2)CC1=O` (configuration not stated): the AC50 under setting [1] is 2.82 µM [rising, full curve, poor fit]. As for `Cc1ccc2c(c1)Oc1ccc([N+](=O)[O-])cc1C(=O)N2`, under setting [1], the AC50 is 35.5 µM [falling, partial curve, poor fit]. Consider `COc1ccc(N(C)S(=O)(=O)c2cccc(C(=O)Nc3cc(OC)ccc3OC)c2)cc1`, for which the AC50 under setting [1] is 2.82 µM [rising, partial curve, poor fit]. Turning to `Cc1ccc(-n2nc(C)c(/C=N/NC(=O)c3cccs3)c2Cl)cc1`, the AC50 under setting [1] was 16.4 µM [rising, single point]. `Cn1cc([N+](=O)[O-])c(C(=O)Nc2sc3c(c2C#N)CCC3)n1`: the AC50 under setting [1] is 3.98 µM [falling, full curve]. As to `CC(=O)N1CCOc2ccc(S(=O)(=O)N(C)c3ccc(C)cc3)cc21`, under setting [1], the AC50 is 2.82 µM [falling, full curve, poor fit]. On to `Cc1ccc(CN2C(=O)CSC2c2ccc(F)cc2)cc1` (configuration not stated), for which, under setting [1], the AC50 is 14.1 µM [rising, single point]. `COC(=O)C(C)n1cnc2c(nnn2-c2cccc(Cl)c2)c1=O` (configuration not stated): the concentration at half-maximal activity (AC50) under setting [1] was 7.31 µM [rising, partial curve].

As to `CC(C)NC(=O)c1cc(-c2ccco2)on1`, under setting [1], the AC50 is 35.5 µM [falling, single point]. Turning to `COc1ccc(NCc2nnc(SCC#N)n2-c2ccccc2OC)cc1`, the concentration at half-maximal activity (AC50) under setting [1] is 2 µM [falling, full curve, poor fit].

In the case of `O=C(CCn1cccc1)Nc1ccc(OC(F)(F)F)cc1`, the AC50 under setting [1] was 0.794 µM [rising, full curve, poor fit]. On to `CCOC(=O)C1CCN(c2nc3cc(OC)ccc3cc2C#N)CC1`, for which the AC50 under setting [1] was 3.66 µM [falling, single point].

For the compound `COc1ccccc1OCC(=O)Nc1ccc(N2CCCCC2)cc1`, under setting [1], the concentration at half-maximal activity (AC50) was 14.1 µM [rising, partial curve, poor fit]. Same read-out and setting: for `OCCc1ccc(-c2ccc(Cl)cc2)o1` the value was 9.2 µM [rising, partial curve]; for `CCc1ccc2oc(-c3cccc(N)c3)nc2c1`, 12.6 µM [falling, partial curve].

Take `Cc1cccc(C(=O)Nc2ncc(CN3CCOCC3)s2)c1`: under setting [1], the AC50 was 14.6 µM [falling, partial curve, poor fit]. For the compound `OC[C@H]1O[C@@H](n2cnc3c(NC4CCCC4)nc(Cl)nc32)[C@H](O)[C@@H]1O`, the AC50 by setting is: under setting [1], 2.91 µM [rising, full curve]; under setting [2], 2.06 µM [falling, full curve]. On to `CCOc1ccc(NC(=O)CSc2nc(N)c(-c3ccccc3)c(=O)[nH]2)cc1`, for which the concentration at half-maximal activity (AC50) under setting [1] is 8.91 µM [rising, partial curve, poor fit]. Turning to `Cc1ccc(S(=O)(=O)Oc2ccc(/C=C(/NC(=O)c3ccccc3)C(=O)NCCCC(=O)O)cc2)cc1`, under setting [1], the AC50 is 0.708 µM [rising, full curve, poor fit].

Consider `COCCNc1ccc(-c2n[nH]c(=O)c3ccccc23)cc1[N+](=O)[O-]`, for which the AC50 under setting [1] is 25.1 µM [rising, single point]. Regarding `COc1ccc(-n2c(O)c(/C=N/NS(=O)(=O)c3cc(C)ccc3C)c3ccccc3c2=O)cc1OC`, the concentration at half-maximal activity (AC50) under setting [1] is 4.61 µM [falling, single point]. As for `O=C(Nc1ccc(S(=O)(=O)N2CCCC2)cc1)c1ccc([N+](=O)[O-])o1`, the half-maximal activity concentration (AC50) under setting [1] was 8.2 µM [falling, single point].

Usually AC50 stands for the concentration at which the activity in the assay is half-maximal.
